The supplement of paper PMC10382679
Single values of this set are uncertain.

B1: Rpb7; numbered along this chain (parent)
chain: MFFIKDLSLNITLHPSFFGPRMKQYLKTKLLEEVEGSCTGKFGYILCVLDYDNIDIQRGRILPTDGSAEFNVKYRAVVFKPFKGEVVDGTVVSCSQHGFEVQVGPMKVFVTKHLMPQDLTFNAGSNPPSYQSSEDVITIKSRIRVKIEGCISQVSSIHAIGSIKEDYLGAI

What was measured:
[1] = variants of: B1; assay: log2 fold change of mutant abundance, UV-irradiated vs unirradiated; higher = more UV resistant (enriched after UV); settings: with Saccharomyces cerevisiae rad7Δ rad26Δ; UV dose (J/m2): 10; genetic background: rad7Δ rad26Δ rpb7Δ + plasmid RPB7 library; outgrowth: 10 cell divisions
[2] = variants of: B1; assay: NOISeq theta enrichment statistic, UV-irradiated vs unirradiated (dimensionless); higher = more UV resistant (enriched after UV); settings: with Saccharomyces cerevisiae rad7Δ rad26Δ; UV dose (J/m2): 10; genetic background: rad7Δ rad26Δ rpb7Δ + plasmid RPB7 library; outgrowth: 10 cell divisions

Row | Variant | log2 fold change of mutant abundance [1] | NOISeq theta enrichment statistic [2]
1 | K83Q | 0.0227 | 0.0461
2 | K83R | -0.155 | -0.581
3 | K83S | -0.148 | -0.124
4 | K83T | 0.0748 | 0.18
5 | K83V | 0.384 | 0.267
6 | K83Y | 0.418 | 0.367
7 | G84A | -0.165 | -0.162
8 | G84C | 0.311 | 0.255
9 | G84D | -0.22 | -0.132
10 | G84E | 0.0401 | 0.0821
11 | G84L | 0.064 | 0.0398
12 | G84R | -0.0489 | -0.106
13 | G84S | 0.175 | 0.157
14 | G84V | 0.00913 | 0.0276
15 | G84W | -0.0633 | -0.177
16 | E85A | -0.0104 | -0.0244
17 | E85D | -0.0579 | -0.307
18 | E85G | -0.064 | -0.222
19 | E85H | 0.0989 | 0.0974
20 | E85I | 0.311 | 0.233
21 | E85K | 0.0231 | 0.0737
22 | E85L | -0.287 | -0.251
23 | E85N | 0.0594 | 0.0647
24 | E85Q | -0.0521 | -0.0735

Row | Variant | log2 fold change of mutant abundance [1] | NOISeq theta enrichment statistic [2]
25 | E85R | -0.101 | -0.0989
26 | E85S | 0.0206 | 0.0142
27 | E85T | 0.219 | 0.229
28 | E85V | -0.0442 | -0.17
29 | E85Y | -0.361 | -0.334
30 | V86A | 0.0598 | 0.125
31 | V86C | -0.229 | -0.165
32 | V86D | 0.24 | 0.253
33 | V86E | -0.117 | -0.511
34 | V86F | 0.173 | 0.161
35 | V86G | 0.00216 | 0.00758
36 | V86I | -0.101 | -0.394
37 | V86K | 0.0709 | 0.0566
38 | V86L | -0.0653 | -0.272
39 | V86M | -0.115 | -0.102
40 | V86Q | 0.11 | 0.0879
41 | V86R | -0.0732 | -0.0691
42 | V86S | 0.128 | 0.102
43 | V86T | 0.25 | 0.184
44 | V86W | -0.228 | -0.136
45 | V86Y | 0.0758 | 0.0548
46 | V87A | -0.0257 | -0.0749
47 | V87C | 0.185 | 0.134
48 | V87D | -0.0311 | -0.0277

Full records, quoted from the list. Order of values: log2 fold change of mutant abundance [1]	NOISeq theta enrichment statistic [2]
K83Y is entered as 0.418	0.367
E85K is entered as 0.0231	0.0737
E85Q is entered as -0.0521	-0.0735
V86R is entered as -0.0732	-0.0691

The results go on:

Row | Variant | log2 fold change of mutant abundance [1] | NOISeq theta enrichment statistic [2]
49 | V87E | 0.0714 | 0.166
50 | V87F | -0.0137 | -0.0149
51 | V87G | 0.0269 | 0.085
52 | V87I | 0.189 | 0.183
53 | V87K | -0.438 | -0.279
54 | V87L | 0.0228 | 0.132
55 | V87M | 0.0482 | 0.18
56 | V87Q | 0.314 | 0.19
57 | V87R | 0.304 | 0.326
58 | V87S | 0.25 | 0.194
59 | V87T | -0.159 | -0.135
60 | V87W | 0.0841 | 0.115
61 | D88A | -0.144 | -0.359
62 | D88C | -0.399 | -0.325
63 | D88E | -0.0918 | -0.814
64 | D88F | -0.0753 | -0.0607
65 | D88G | -0.0672 | -0.259
66 | D88H | 0.0899 | 0.13
67 | D88I | 0.144 | 0.121
68 | D88K | 0.0281 | 0.0443
69 | D88L | -0.288 | -0.243
70 | D88M | 0.0107 | 0.00933
71 | D88N | 0.0319 | 0.133
72 | D88P | 0.437 | 0.326

Row | Variant | log2 fold change of mutant abundance [1] | NOISeq theta enrichment statistic [2]
73 | D88Q | 0.38 | 0.228
74 | D88R | -0.165 | -0.124
75 | D88S | -0.117 | -0.116
76 | D88T | 0.0562 | 0.0724
77 | D88V | 0.036 | 0.214
78 | D88Y | 0.142 | 0.51
79 | G89A | 0.0124 | 0.0278
80 | G89C | -0.0213 | -0.0641
81 | G89D | 0.0257 | 0.107
82 | G89E | -0.224 | -0.327
83 | G89F | -0.162 | -0.0797
84 | G89H | 0.208 | 0.118
85 | G89I | 0.128 | 0.0696
86 | G89K | -0.353 | -0.321
87 | G89L | -0.382 | -0.296
88 | G89N | -0.266 | -0.228
89 | G89R | -0.00414 | -0.00562
90 | G89S | 0.00726 | 0.0189
91 | G89T | -0.312 | -0.262
92 | G89V | -0.0578 | -0.154
93 | G89W | 0.331 | 0.311
94 | G89Y | 0.125 | 0.106
95 | T90A | -0.0886 | -0.324
96 | T90D | -0.241 | -0.189

Row | Variant | log2 fold change of mutant abundance [1] | NOISeq theta enrichment statistic [2]
97 | T90E | 0.0965 | 0.0983
98 | T90G | 0.0709 | 0.0506
99 | T90H | 0.0366 | 0.0338
100 | T90I | -0.082 | -0.338
101 | T90K | -0.0472 | -0.304
102 | T90L | -0.0553 | -0.0568
103 | T90M | 0.157 | 0.158
104 | T90N | -0.0984 | -0.172
105 | T90P | -0.0787 | -0.291
106 | T90Q | -0.0579 | -0.117
107 | T90R | -0.0313 | -0.0933
108 | T90S | -0.00471 | -0.0199
109 | T90V | 0.451 | 0.333
110 | T90Y | 0.349 | 0.225
111 | V91A | -0.153 | -0.364
112 | V91C | 0.0174 | 0.0225
113 | V91D | 0.0791 | 0.202
114 | V91E | -0.229 | -0.238
115 | V91F | 0.0191 | 0.0623
116 | V91G | -0.0376 | -0.142
